Source: US11286281B2, “Homodetic cyclic peptides targeting alpha-4-beta-7 integrin” (priority 2017, dated 2022)
At least one peptide structure holds a part that was inferred or is arguable (an end, a ring closure or a residue).

Target: T1, integrin α4β7 (Homo sapiens, UniProt P13612+P26010)
T1 construct: purchased R&D Systems 5397-A3-050
T1 sequence (P13612 34-970 limits assumed): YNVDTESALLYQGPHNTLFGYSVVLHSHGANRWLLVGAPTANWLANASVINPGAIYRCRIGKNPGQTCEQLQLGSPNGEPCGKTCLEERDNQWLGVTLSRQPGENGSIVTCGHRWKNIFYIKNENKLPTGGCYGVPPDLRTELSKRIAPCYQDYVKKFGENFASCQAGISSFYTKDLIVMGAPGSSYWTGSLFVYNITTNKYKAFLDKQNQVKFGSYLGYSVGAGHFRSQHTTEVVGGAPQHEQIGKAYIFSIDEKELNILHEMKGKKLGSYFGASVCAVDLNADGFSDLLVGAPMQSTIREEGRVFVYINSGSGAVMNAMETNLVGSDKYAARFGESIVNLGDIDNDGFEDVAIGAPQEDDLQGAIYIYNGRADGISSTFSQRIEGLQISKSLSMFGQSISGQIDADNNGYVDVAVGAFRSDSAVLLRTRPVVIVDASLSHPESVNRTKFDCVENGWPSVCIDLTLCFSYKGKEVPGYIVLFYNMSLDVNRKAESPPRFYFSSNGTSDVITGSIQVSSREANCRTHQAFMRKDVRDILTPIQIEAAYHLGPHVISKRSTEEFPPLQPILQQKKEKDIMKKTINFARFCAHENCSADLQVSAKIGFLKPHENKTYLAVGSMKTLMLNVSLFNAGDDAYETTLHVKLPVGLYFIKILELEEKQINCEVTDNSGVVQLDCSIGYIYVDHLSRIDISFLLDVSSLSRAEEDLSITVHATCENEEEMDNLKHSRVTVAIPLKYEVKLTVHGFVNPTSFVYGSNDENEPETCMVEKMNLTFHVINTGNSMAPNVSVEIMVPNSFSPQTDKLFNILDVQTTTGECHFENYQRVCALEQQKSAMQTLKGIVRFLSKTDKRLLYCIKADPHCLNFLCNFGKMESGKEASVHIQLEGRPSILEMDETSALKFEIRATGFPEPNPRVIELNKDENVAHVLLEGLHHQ
T1 sequence (P26010 20-723 limits assumed): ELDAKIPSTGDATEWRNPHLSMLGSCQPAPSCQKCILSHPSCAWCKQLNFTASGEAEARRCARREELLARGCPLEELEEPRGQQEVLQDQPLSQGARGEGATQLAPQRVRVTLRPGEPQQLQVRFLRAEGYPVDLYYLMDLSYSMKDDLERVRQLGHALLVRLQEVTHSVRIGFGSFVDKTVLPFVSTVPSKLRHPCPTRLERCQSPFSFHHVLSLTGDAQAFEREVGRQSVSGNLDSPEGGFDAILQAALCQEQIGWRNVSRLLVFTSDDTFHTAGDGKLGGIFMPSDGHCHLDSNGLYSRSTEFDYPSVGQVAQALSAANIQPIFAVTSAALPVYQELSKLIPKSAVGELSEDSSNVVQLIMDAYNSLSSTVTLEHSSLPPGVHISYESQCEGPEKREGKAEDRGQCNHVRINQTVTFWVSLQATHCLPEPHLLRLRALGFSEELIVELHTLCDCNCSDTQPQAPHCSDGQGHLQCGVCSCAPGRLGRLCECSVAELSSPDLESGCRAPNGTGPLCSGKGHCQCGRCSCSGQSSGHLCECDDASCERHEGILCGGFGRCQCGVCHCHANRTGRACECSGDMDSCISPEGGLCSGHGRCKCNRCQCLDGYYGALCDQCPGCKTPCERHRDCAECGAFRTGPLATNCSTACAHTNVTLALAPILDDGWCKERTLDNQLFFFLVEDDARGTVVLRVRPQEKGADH
Test: Integrin α4β7-MAdCAM-1 ELISA competition assay
Format: binding
Details: values of the second run
Method: Integrin α4β7-MAdCAM-1 ELISA Competition Assay
A 96-well Microlon plate (Greiner, 655001) was coated with 100 μl per well of a solution of 1 μg/ml recombinant integrin α4β7 (R&D Systems, 5397-A3-050) in carbonate buffer (50 mM, pH 9.6). The plate was incubated at 4′C overnight. The solution was removed and 250 μl blocking buffer (50 mM Tris, 150 mM NaCl, 1 mM MnCl2, 1% BSA, 0.05% Tween) was added per well. The plate was then incubated for 1 hour at room temperature. The plate was washed three times with wash buffer (50 mM Tris, 100 mM NaCl, 1 mM MnCl2, 0.05% Tween). To each well, 50 μl of compound diluted in assay buffer was added by transfer from a compound serial dilution plate. 50 μl recombinant MAdCAM-Fc (R&D systems, 6056-MC-050) at a concentration of 0.1 μg/ml in assay buffer (50 mM Tris, 150 mM NaCl, 1 mM MnCl2, 0.1% BSA, 0.05% Tween) was added to each well. The plate was incubated at room temperature with shaking (300 rpm) for 2 hours to reach binding equilibrium. Then the plate was washed three times in wash buffer and 100 μl anti-human IgG Fc specific-HRP (Abcam, Ab97225) diluted at 1:2000 in assay buffer was added to each well. The plate was incubated at room temperature for 1 hour under agitation. […] The reaction was stopped after 2 minute-incubation by adding 50 μl of 1M H2SO4 and optical absorbance was read at 450 nm.

## CC(C)C[C@@H]1NC(=O)c2ccc(-c3ccc(N4CCN(C(=O)c5ccccc5-c5ccccc5C(=O)N5CCN(c6ccc(-c7ccc8cc7CNC(=O)[C@@H]7CCCN7C(=O)[C@H](C)NC(=O)[C@H]([C@@H](C)O)NC(=O)[C@H](CC(=O)O)NC(=O)[C@H](CC(C)C)NC8=O)cc6)CC5)CC4)cc3)c(c2)CNC(=O)[C@@H]2CCCN2C(=O)[C@H](C)NC(=O)[C@H]([C@@H](C)O)NC(=O)[C@H](CC(=O)O)NC1=O [Compound 16]
  IC50: ~8 nM
